The target of this assay is murine GPRC5D (murine) (UniProt Q9JIL6). As to the kind of experiment: FACS, murine GPRC5D. For orientation: In flow cytometry, cells or beads pass a laser one at a time.

The chains behind the UniProt entries cited, without tags or fusion partners. Where a name states a change or a piece, a line headed by the entry shows the natural chain unless it says otherwise.
UniProt Q9JIL6: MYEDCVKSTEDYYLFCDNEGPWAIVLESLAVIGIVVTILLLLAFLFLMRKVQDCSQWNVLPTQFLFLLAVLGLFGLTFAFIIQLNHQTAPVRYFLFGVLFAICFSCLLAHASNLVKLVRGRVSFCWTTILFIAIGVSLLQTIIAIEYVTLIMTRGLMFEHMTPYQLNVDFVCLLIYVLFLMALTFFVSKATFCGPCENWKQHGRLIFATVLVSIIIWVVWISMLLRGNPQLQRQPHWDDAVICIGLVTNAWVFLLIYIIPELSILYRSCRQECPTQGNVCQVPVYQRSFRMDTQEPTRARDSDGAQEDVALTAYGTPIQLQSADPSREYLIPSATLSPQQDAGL

No constants are given. Whether binding was seen depends on the method and setting. Some binding calls cover weakened binding; strength is not graded here.

B1: GCDB72 (bispecific antibody, IgG4, V domains shown)
VH 1: QVQLVQSGAEVKKPGASVKVSCKASGYSFTGYTMNWVRQAPGQGLEWMGLINPYNSDTNYAQKLQGRVTMTTDTSTSTAYMELRSLRSDDTAVYYCARVALRVALDYWGQGTLVTVSS
VL 1: DIQMTQSPSSLSASVGDRVTITCKASQNVATHVGWYQQKPGKAPKRLIYSASYRYSGVPSRFSGSGSGTEFTLTISNLQPEDFATYYCQQYNRYPYTFGQGTKLEIK
VH 2: EVQLVESGGGLVQPGGSLRLSCAASGFTFNTYAMNWVRQAPGKGLEWVARIRSKYNNYATYYAASVKGRFTISRDDSKNSLYLQMNSLKTEDTAVYYCARHGNFGNSYVSWFAYWGQGTLVTVSS
VL 2: QTVVTQEPSLTVSPGGTVTLTCRSSTGAVTTSNYANWVQQKPGQAPRGLIGGTNKRAPGTPARFSGSLLGGKAALTLSGVQPEDEAEYYCALWYSNLWVFGGGTKLTVL
With B1, the binding entry is reported as “binds”.

Values taken from patent US20180037651A1.
